Patent US20060269536A1
These are yes or no findings as the source states them, for the method shown. Some entries that bind do so weakly or less than the wild type.

Amino acid sequences for entries named in this document (tags omitted). Residues count along the entry.
UniProt P20151, residues 25-261: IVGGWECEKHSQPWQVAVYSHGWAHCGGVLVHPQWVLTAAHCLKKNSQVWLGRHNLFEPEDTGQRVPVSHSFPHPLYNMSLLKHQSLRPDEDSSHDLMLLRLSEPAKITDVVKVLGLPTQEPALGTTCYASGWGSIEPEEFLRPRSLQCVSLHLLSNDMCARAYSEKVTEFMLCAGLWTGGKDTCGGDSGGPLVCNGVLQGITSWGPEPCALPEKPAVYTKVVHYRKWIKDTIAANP

How the values were obtained:
[1] = molecular target: human glandular kallikrein hK2 (human) (UniProt P20151); assay: Western blot of complex formation (FIG. 3)
[2] = molecular target: human glandular kallikrein hK2 (human) (UniProt P20151); assay: Western blot, anti-hK2 antibody, 3 h at 37° C., I:E 100:1 (FIG. 3A)

B1: rACTWT (recombinant wild type α1-antichymotrypsin) (protein, human)
chain: HHHHHHNSPLDEENLTQENQDRGTHVDLGLASANVDFAFSLYKQLVLKAPDKNVIFSPLSISTALAFLSLGAHNTTLTEILKGLKFNLTETSEAEIHQSFQHLLRTLNQSSDELQLSMGNAMFVKEQLSLLDRFTEDAKRLYGSEAFATDFQDSAAAKKLINDYVKNGTRGKITDLIKDLDSQTMMVLVNYIFFKAKWEMPFDPQDTHQSRFYLSKKKWVMVPMMSLHHLTIPYFRDEELSCTVVELKYTGNASALFILPDQDKMEEVEAMLLPETLKRWRDSLEFREIGELYLPKFSISRDYNLNDILLQLGIEEAFTSKADLSGITGARNLAVSQVVHKAVLDVFEEGTEASAATAVKITLLSALVETRTIVRFNRPFLMIIVPTDTQNIFFMSKVTNPKQA
binding [1]: binds
binding [2]: binds
